Assay results taken from paper PMC8140133.

Protein sequences, listed by entry. Tags and fused reporters are not part of them.
UniProt Q8TD26: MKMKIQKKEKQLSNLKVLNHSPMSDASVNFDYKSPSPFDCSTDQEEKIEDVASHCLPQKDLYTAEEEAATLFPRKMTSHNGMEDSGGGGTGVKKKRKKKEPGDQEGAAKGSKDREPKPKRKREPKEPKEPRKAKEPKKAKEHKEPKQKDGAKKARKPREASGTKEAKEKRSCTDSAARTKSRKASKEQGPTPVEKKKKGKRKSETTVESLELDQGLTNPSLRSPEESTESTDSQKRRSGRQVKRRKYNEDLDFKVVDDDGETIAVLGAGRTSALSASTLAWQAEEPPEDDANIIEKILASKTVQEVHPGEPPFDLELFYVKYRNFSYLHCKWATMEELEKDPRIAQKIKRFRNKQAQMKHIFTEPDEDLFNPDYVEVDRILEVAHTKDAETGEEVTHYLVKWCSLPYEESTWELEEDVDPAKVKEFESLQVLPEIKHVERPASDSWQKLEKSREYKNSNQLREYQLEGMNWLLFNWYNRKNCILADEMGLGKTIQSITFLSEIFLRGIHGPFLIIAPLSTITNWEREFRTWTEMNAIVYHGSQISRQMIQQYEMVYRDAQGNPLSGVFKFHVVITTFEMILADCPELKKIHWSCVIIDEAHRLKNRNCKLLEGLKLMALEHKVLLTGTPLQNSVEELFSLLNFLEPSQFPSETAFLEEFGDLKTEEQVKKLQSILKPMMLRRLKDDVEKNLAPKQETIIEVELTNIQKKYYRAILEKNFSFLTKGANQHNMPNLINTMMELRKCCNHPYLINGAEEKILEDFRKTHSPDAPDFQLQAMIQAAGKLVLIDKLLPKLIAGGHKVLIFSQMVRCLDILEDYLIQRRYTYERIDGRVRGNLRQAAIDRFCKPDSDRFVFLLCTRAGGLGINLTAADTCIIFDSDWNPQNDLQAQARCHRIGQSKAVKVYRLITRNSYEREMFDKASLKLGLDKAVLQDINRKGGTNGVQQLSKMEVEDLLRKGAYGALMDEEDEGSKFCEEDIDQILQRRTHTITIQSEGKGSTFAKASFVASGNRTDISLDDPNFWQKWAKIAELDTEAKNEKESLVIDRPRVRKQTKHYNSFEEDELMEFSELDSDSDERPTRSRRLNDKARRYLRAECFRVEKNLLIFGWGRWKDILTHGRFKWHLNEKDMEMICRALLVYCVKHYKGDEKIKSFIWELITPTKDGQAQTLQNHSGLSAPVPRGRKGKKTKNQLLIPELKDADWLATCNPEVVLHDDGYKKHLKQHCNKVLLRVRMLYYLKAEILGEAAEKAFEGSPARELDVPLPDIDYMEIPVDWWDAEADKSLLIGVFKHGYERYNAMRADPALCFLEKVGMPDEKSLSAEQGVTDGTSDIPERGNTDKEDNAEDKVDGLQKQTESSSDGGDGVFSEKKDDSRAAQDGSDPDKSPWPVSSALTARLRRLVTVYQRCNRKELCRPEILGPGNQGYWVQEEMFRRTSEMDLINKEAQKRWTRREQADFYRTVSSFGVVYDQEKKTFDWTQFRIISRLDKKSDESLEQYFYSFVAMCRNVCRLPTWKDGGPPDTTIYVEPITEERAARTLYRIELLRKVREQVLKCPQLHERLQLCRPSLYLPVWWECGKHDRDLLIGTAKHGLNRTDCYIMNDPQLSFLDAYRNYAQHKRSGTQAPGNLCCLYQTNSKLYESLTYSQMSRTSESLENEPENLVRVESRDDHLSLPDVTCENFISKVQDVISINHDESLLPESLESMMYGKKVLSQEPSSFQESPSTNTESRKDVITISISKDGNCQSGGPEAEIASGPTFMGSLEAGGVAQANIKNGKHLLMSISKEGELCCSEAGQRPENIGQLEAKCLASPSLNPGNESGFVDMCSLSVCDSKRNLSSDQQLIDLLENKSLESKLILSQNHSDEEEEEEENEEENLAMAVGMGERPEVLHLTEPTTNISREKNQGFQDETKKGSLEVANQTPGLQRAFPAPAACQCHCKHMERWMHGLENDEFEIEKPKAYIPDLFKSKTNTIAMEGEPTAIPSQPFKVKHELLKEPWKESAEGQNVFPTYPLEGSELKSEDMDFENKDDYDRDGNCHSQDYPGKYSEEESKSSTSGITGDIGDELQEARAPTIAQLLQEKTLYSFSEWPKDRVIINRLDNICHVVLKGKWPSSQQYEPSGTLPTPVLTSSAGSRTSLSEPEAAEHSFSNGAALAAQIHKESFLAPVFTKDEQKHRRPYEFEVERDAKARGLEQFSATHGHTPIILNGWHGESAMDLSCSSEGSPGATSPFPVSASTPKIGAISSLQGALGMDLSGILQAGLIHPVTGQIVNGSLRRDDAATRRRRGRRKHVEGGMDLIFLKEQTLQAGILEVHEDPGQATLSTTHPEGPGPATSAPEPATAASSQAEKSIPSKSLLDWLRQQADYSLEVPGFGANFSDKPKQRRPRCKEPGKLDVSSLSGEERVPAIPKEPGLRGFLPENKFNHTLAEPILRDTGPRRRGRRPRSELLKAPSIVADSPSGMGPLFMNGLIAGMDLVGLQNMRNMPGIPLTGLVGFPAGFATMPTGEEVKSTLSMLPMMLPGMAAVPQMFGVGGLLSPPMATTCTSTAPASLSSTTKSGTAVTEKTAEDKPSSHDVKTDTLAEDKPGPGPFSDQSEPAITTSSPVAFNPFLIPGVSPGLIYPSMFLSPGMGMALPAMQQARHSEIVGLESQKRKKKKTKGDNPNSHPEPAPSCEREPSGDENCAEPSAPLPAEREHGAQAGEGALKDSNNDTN
UniProt Q92922: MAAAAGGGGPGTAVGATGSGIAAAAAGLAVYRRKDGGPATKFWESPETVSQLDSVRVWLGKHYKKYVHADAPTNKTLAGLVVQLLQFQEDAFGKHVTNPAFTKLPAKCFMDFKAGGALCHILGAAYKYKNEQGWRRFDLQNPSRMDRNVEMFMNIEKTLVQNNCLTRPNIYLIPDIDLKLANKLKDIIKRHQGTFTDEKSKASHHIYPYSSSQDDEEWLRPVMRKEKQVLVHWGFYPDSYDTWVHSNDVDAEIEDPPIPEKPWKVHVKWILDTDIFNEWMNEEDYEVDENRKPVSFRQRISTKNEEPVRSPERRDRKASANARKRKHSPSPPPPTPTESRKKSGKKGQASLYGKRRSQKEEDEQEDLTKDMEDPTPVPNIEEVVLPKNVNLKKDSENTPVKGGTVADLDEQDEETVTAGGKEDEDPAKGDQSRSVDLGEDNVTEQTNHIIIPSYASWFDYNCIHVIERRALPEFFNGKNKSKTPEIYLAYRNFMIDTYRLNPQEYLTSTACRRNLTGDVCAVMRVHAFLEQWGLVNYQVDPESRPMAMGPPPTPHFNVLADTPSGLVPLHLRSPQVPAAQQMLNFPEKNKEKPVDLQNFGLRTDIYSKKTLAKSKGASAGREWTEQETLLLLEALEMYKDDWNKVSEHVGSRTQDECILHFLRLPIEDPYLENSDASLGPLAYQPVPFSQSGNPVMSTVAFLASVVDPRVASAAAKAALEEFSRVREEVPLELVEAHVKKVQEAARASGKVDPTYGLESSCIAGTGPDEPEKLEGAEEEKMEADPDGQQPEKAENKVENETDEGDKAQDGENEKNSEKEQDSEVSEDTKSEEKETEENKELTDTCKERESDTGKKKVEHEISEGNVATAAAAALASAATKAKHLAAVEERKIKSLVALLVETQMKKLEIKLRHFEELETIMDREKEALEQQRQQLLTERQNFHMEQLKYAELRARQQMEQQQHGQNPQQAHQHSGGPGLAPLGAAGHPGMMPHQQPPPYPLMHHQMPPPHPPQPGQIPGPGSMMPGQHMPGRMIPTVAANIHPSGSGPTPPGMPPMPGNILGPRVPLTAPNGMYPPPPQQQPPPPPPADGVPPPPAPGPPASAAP
UniProt O96019: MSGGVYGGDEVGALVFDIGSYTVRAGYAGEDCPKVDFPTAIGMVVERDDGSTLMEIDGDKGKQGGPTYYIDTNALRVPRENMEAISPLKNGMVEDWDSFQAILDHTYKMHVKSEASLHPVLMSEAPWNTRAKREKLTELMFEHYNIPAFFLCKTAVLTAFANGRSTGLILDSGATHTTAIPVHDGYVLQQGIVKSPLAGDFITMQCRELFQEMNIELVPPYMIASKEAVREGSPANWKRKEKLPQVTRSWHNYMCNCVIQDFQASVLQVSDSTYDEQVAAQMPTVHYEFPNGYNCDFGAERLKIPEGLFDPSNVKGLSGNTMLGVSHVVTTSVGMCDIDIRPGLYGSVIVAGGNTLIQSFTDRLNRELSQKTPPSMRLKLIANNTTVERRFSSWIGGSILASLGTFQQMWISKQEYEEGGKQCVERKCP
UniProt P51532: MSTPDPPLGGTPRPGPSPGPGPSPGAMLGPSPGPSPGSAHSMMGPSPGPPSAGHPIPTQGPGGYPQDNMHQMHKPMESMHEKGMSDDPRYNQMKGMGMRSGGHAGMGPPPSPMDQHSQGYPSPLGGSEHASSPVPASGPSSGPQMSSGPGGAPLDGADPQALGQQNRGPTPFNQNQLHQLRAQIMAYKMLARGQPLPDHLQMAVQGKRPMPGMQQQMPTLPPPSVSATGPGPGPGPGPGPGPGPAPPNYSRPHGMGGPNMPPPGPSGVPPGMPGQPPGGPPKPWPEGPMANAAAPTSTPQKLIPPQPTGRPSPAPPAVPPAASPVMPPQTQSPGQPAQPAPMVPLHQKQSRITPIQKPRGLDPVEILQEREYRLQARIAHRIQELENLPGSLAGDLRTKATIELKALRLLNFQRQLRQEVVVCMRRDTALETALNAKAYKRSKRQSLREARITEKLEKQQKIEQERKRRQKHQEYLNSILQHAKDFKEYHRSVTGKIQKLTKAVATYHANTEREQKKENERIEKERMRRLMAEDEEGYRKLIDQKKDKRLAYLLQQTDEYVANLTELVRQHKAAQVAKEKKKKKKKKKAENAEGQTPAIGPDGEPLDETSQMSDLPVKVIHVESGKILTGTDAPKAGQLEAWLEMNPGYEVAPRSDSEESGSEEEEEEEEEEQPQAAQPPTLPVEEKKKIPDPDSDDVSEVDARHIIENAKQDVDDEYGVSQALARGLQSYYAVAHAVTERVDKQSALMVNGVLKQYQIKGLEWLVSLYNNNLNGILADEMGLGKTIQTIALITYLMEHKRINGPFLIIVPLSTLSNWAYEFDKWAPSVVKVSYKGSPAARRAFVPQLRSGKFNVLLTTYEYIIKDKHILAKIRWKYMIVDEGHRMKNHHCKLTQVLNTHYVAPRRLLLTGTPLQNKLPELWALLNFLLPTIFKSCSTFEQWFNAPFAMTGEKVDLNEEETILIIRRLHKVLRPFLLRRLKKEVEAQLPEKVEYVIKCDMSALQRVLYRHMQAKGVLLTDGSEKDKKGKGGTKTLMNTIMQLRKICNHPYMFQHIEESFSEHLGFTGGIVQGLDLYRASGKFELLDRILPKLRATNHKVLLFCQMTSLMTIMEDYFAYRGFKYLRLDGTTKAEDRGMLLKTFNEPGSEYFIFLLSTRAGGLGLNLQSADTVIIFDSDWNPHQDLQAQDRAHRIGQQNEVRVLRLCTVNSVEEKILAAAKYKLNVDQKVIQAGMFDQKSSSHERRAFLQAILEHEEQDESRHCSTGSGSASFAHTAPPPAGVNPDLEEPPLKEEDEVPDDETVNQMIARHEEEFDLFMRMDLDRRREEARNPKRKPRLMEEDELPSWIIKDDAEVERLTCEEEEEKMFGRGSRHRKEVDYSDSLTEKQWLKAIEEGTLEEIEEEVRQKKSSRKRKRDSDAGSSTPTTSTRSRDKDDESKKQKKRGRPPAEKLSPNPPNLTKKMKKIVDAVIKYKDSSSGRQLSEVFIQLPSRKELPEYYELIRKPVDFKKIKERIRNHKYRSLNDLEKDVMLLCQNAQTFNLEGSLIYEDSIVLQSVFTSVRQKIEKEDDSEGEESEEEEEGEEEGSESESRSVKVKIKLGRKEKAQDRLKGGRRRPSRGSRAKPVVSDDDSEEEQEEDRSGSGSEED

Biological target: full-length wild-type HA-tagged CHD6 (human) (UniProt Q8TD26)
Experiment: affinity purification with mass spectrometry; anti-HA immunoprecipitation of HA-tagged CHD6 from Benzonase-treated nuclear lysate (IP buffer: 150 mM LiCl, 50 mM Tris-HCl pH 7.5, 1 mM EDTA, 0.5% Empigen) of doxycycline-induced iPSCs, overnight at 4 °C; label-free quantitative MS; steady state, 2 h starvation or 1 h etoposide

Substance: SMARCC1 (BAF155) (from UniProt Q92922 1-1105)
- binding: binds

Substance: ACTL6A (BAF53) (from UniProt O96019 1-429)
- binding: binds

Substance: SMARCA4 (BRG1) (from UniProt P51532 1-1647)
- binding: binds

Results are given in words; binding and its absence hold for the method and conditions named. In cells and extracts the contact can be indirect. A yes stands for co-enrichment or nearness to the bait. Other partners may have been found.
